PMC10286715
Results are given in words; binding and its absence hold for the method and conditions named. Binding seen in cells or lysates may run through a third protein.

Chains of the proteins cited; added tags and fusions are not shown. Residues count along the entry.
UniProt P02769, residues 25-607: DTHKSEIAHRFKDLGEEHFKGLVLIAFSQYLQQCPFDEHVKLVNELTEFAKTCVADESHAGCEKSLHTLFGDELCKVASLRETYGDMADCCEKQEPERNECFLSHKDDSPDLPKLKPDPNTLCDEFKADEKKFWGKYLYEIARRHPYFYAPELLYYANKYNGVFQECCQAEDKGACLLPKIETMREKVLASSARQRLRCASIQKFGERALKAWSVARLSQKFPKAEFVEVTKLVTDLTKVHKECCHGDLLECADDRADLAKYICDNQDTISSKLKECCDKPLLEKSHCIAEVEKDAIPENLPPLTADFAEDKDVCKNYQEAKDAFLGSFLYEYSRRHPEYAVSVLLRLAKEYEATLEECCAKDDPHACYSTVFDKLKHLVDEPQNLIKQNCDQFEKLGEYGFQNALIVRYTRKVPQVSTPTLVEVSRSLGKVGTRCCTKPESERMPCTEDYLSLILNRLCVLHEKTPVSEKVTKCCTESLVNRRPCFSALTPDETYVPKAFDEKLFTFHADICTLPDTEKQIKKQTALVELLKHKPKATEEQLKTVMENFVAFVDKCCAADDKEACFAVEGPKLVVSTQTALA
UniProt A0ABM5R182: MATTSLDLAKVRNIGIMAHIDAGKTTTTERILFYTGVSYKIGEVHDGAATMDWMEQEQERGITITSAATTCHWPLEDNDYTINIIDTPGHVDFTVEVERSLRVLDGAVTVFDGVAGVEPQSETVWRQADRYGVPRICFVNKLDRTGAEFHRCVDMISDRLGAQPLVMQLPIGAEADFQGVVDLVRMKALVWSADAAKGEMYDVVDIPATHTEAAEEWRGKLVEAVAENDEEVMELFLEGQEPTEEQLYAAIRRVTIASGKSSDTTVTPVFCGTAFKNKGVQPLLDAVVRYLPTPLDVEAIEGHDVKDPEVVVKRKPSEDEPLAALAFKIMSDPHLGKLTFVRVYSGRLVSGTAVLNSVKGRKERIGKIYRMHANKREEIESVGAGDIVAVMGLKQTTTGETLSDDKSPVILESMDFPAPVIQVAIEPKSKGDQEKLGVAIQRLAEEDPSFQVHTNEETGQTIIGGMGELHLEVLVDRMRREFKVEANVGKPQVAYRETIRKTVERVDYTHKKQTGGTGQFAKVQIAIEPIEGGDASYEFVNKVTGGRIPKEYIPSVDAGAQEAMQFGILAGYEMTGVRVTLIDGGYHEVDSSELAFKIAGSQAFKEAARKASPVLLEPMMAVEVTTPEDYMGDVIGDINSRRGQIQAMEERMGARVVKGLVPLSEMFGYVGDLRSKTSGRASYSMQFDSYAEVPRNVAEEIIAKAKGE
UniProt A0ABN4DRJ1: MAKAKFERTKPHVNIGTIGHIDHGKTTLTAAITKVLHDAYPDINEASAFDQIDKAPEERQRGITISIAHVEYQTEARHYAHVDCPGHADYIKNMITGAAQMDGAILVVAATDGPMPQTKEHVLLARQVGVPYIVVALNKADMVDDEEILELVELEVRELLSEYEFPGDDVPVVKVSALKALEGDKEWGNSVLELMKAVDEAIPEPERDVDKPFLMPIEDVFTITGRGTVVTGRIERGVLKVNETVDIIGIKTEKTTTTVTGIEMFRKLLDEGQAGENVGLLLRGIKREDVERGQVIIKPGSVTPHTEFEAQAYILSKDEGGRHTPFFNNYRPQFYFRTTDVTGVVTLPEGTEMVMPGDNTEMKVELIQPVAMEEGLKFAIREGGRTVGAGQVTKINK

Target: bovine serum albumin labeled with sulfo-SBED (bovine) (UniProt P02769)
Experiment: cross-linking; sulfo-SBED-labeled purified bait mixed with S. lividans TK23 lysate, room temperature 5 min, UV 365 nm; S-S bond cleaved with 100 mM 2-mercaptoethanol; biotin-labeled prey captured on a streptavidin column, eluted with 0.1 M glycine pH 2.5; SDS-PAGE (CBB), streptavidin-HRP blot, MALDI-TOF peptide mass fingerprinting; only the target purified

Row | Substance | binding
1 | elongation factor G1 (from UniProt A0ABM5R182 1-708) | no binding
2 | elongation factor Tu1 (from UniProt A0ABN4DRJ1 1-397) | no binding
